{"source": "patent US20230000999A1", "about": "“COMPOSITIONS AND METHODS FOR NUCLEIC ACID DELIVERY” (AJK BIOPHARMACEUTICAL, LLC, priority 2019, published 2023)", "key": {"siRNA": {"test_system": "siRNA", "assay": "siRNA binding affinity (SYBR Green II quantification of free siRNA)", "conditions": "unbound siRNA quantified by SYBR Green II; N/P ratios 0.05-40"}, "MDA-MB-231 cells": {"test_system": "MDA-MB-231 cells", "assay": "Cellular uptake of FAM-labeled siRNA (flow cytometry, confocal microscopy)", "type": "cell-based, human", "conditions": "siRNA delivery, as compared to commercial agent lipofectamine"}}, "note": "At least one compound was matched to its structure with a doubt left. Positions of bridges follow the written chain, without caps; N, C: chain ends. Residues, ends and D or L forms follow the SMILES beside them."}
{"smiles": "N=C(N)NCCC[C@@H]1NC(=O)[C@H](CCCNC(=N)N)NC(=O)[C@H](CCCNC(=N)N)NC(=O)[C@H](CCCNC(=N)N)NC(=O)[C@@H](N)CSSC[C@@H](C(=O)O)NC(=O)[C@H](Cc2c[nH]c3ccccc23)NC(=O)[C@H](Cc2c[nH]c3ccccc23)NC(=O)[C@H](Cc2c[nH]c3ccccc23)NC(=O)[C@H](Cc2c[nH]c3ccccc23)NC1=O", "note": "[[CR4W4C]] (H-CRRRRWWWWC-OH; disulfide 1-10; N-terminus assumed)", "values": [{"measurement": "N/P ratio required for 50% binding (BC50)", "setting": "siRNA", "value": "approximately 4 N/P ratio"}, {"measurement": "transfection efficiency (summary statement)", "setting": "MDA-MB-231 cells", "value": "high transfection efficiency"}]}
